No constants are given. Whether binding was seen depends on the method and setting. Some entries that bind do so weakly or less than the wild type.
How the values were obtained:
[1] = molecular target: T1, glycosylated full length human mucin-like protein (gMLP) secreted by cancer cell lines Panc-1 and A2780 (human); test: dot blot, A2780 supernatant (FIG. 7)
T1 sequence (chain, glycosylated (highly O-glycosylated; sites not given)): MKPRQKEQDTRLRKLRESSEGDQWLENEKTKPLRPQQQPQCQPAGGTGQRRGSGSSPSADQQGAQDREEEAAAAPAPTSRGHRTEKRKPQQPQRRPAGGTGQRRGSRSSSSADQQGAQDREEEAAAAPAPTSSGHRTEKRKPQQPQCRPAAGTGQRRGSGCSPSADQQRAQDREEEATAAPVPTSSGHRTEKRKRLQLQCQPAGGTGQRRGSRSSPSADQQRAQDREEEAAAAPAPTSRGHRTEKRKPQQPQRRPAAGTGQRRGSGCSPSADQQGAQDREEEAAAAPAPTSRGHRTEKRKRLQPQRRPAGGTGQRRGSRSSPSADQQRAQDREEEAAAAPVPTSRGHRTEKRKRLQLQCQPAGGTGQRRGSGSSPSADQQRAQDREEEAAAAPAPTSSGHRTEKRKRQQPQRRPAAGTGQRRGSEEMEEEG

[2] = molecular target: T1, glycosylated full length human mucin-like protein (gMLP) secreted by cancer cell lines Panc-1 and A2780 (human); test: dot blot, Panc-1 supernatant (FIG. 5)
[3] = molecular target: T1, glycosylated full length human mucin-like protein (gMLP) secreted by cancer cell lines Panc-1 and A2780 (human); test: Western blot (FIG. 8 legend, top panel)
[4] = molecular target: T1, glycosylated full length human mucin-like protein (gMLP) secreted by cancer cell lines Panc-1 and A2780 (human); test: summary of Example 2 (Western blot, dot blot)
[5] = molecular target: T1, glycosylated full length human mucin-like protein (gMLP) secreted by cancer cell lines Panc-1 and A2780 (human); test: Western blot, concentrated A2780 supernatant (FIG. 8)
[6] = molecular target: T1, glycosylated full length human mucin-like protein (gMLP) secreted by cancer cell lines Panc-1 and A2780 (human); test: ELISA test positive with both rMLP and gMLP, summary grade
[7] = molecular target: T1, glycosylated full length human mucin-like protein (gMLP) secreted by cancer cell lines Panc-1 and A2780 (human); test: dot blot, summary grade (gMLP secreted from Panc1 and A2780 cell lines)
[8] = molecular target: T1, glycosylated full length human mucin-like protein (gMLP) secreted by cancer cell lines Panc-1 and A2780 (human); test: ELISA, plate coated with 1 µg/ml concentrated A2780 supernatant (FIG. 9)
[9] = molecular target: T1, glycosylated full length human mucin-like protein (gMLP) secreted by cancer cell lines Panc-1 and A2780 (human); test: Western blot, summary grade (gMLP secreted from Panc1 and A2780 cell lines)
[10] = molecular target: T1, glycosylated full length human mucin-like protein (gMLP) secreted by cancer cell lines Panc-1 and A2780 (human); test: ELISA, plate coated with 1.0 µg/ml gMLP from concentrated supernatant of ovarian cancer cell line A2789 (FIG. 6)
[11] = molecular target: recombinant MLP (rMLP) C-terminal fusion protein: N-terminal histidine tag fused to residues 279-431 of human mucin-like protein (human); test: dot blot (FIG. 5)
[12] = molecular target: recombinant MLP (rMLP) C-terminal fusion protein: N-terminal histidine tag fused to residues 279-431 of human mucin-like protein (human); test: dot blot (FIG. 7)
[13] = molecular target: recombinant MLP (rMLP) C-terminal fusion protein: N-terminal histidine tag fused to residues 279-431 of human mucin-like protein (human); test: Western blot (FIG. 8)
[14] = molecular target: T1, glycosylated full length human mucin-like protein (gMLP) secreted by cancer cell lines Panc-1 and A2780 (human); test: Western blot (FIG. 8 legend, middle panel)
[15] = molecular target: recombinant MLP (rMLP) C-terminal fusion protein: N-terminal histidine tag fused to residues 279-431 of human mucin-like protein (human); test: Western blot (FIG. 8 legend, middle panel)
[16] = molecular target: recombinant MLP (rMLP) C-terminal fusion protein: N-terminal histidine tag fused to residues 279-431 of human mucin-like protein (human); test: summary of Example 2 (Western blot, dot blot, ELISA)
[17] = molecular target: recombinant MLP (rMLP) C-terminal fusion protein: N-terminal histidine tag fused to residues 279-431 of human mucin-like protein (human); test: ELISA test positive with both rMLP and gMLP, summary grade
[18] = molecular target: recombinant MLP (rMLP) C-terminal fusion protein: N-terminal histidine tag fused to residues 279-431 of human mucin-like protein (human); test: ELISA, plate coated with 10.0 µg/ml rMLP C-terminal protein
[19] = molecular target: T1, glycosylated full length human mucin-like protein (gMLP) secreted by cancer cell lines Panc-1 and A2780 (human); test: summary of Example 2 (Western blot, dot blot; also ELISA for clones 11 and B)

Measured: binding

B1: anti-MLP monoclonal antibody αMLP Clone C (hybridoma ATCC PTA-121701) (antibody, IgG1, V domains shown)
VH: DVKLQESGGGLVQPGGSMKLSCVASGFTFSNYWMNWVRQSPEKGLEWVAEIRLKSNNYAINYAESVKGRFTISRDDSKSSVYLDMNNLRAEDTGIYYCTSYYGSSLYYLDYWGQGTTLTVSS
VL: QIVLTQSPVIMSASPGEKVTISCSASSSVSNMYWYQQKPGSSPKAWIYRTSNLASGVPARFSGSGSGTSYSLTISSMEAEDAATYYCHQYQSYPRTFGAGTKLEIK
notes: also called 2(C); mAb clone C
binds: [1] | [2] | [3] | [4] | [5] | [6] | [7] | [8] | [9] | [10]

B2: anti-MLP monoclonal antibody αMLP Clone B (hybridoma ATCC PTA-121700) (antibody, IgG2a, V domains shown)
VH: EVQLQQSGPELVKPGASVKISCKASGYSFTGFYIHWVKQSHVKSLEWIGRIHPYNGAPTYNQNFKDRARLTVHESSSTAYMEFFGLTSEDSAVYYCARERVYYYGSTYEFDFWGQGTTLTVSS
VL: DVLMTQTPLSLPVSLGDQASISCRSGQSIVHSSGVTYLSWYLQKPGQSPKLLIYKVFYRFSGVPDRFSGSGSGTDFTLKISRVEAEDLGVYYCFQGSHVPPTFGTGTKLELK
notes: also called mAb clone B
not listed: [3] | [4]
binds: all other assays above
